# Key:
# B16F1 cells = test: Experimental lung metastasis assay (B16F1 cells treated in culture, then injected intravenously into C57BL/6 mice); type: in vivo, murine (C57BL/6 mice); details: Mus musculus, B16-F1, iv, read-out: B16 Metastasis IC50
# Procedure: Experimental Metastasis Assay
# Sub-confluent B16F1 cells were harvested by washing with HBSS followed by trypsinization for 1 minute. The cells were sedimented by centrifugation (250 g, 5 minutes) and washed twice with HBSS. Viable cells were counted after dilution with trypan blue. A single-cell suspension of 10^5 cells in 0.2 ml HBSS was injected intravenously into 16-18 C57BL/6 mice via the tail vein. Three weeks later, the number of metastatic foci in the lung were counted.
# Sub-confluent B16F1 cells were incubated with 4-propyl-
# 5(4-pyridinyl)-2(3H)-oxazolone (compound 1) for 24 hours at
# (§1) 37° C. Cells were then harvested and 1 × 10^5 cells
# injected intravenously into mice. Three weeks later,
# metastatic nodules were counted as described in Material
# ^b Subconfluent B16F1 cells were exposed to drugs for 24 hours at
# as §1
# injected intravenously into mice. The number of metastatic nodules were
# quantitated three weeks later.
# membrane-associated PKC = test: Inhibition of B16F1 membrane-associated PKC activity; type: biochemical, murine; details: B16F1 membrane fraction
# Procedure: Protein Kinase C Preparation
# Cytostolic and membrane-associated PKC was prepared as described in Thomas, T. P., Gopalakrishna, R. and Anderson, W. B. Hormone- and tumor promoter-induced activation of membrane association of protein kinase C in intact cells, Methodsin Enzymology, 141: 399-411, 1987. Sub-confluent B16F1 cultures (4×10^7 cells total) were washed twice with phosphate buffered saline (PBS), pH 7.2 and then twice with buffer A (20 mM Tris, pH 7.5, 2 mM EDTA, 0.5 mM EGTA, […], 2 mM phenylmethylsulfonyl fluoride (PMSF), and 2 μg/ml leupeptin). Cells were scraped from the plates in buffer A, homogenized (40 strokes) and sedimented by centrifugation for 1 hour at 100,000 g. […]
# PKC was quantitated as described in Thomas et al., ibid. […]
# then measured in the presence of the drugs listed.
smiles,measurement,setting,value
"CN[C@@H]1C[C@H]2O[C@@](C)([C@@H]1OC)n1c3ccccc3c3c4c(c5c6ccccc6n2c5c31)C(=O)NC4 [Staurosporine, reference compound]",IC50,B16F1 cells,30 nM
same,IC50,membrane-associated PKC,25 nM
